PubChem BioAssay AID504744 – Drosophila RNAi Screening Center – 2011

- Assay: 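Uncover factors, including feedback loops, that control dAkt activation in fly cells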 (primary screen)
- System: Drosophila Kc167 cells
- Reagents: long dsRNA against Drosophila genes, 250 ng dsRNA per well of a 384-well plate
- Time to read-out: 3 days of knock-down, then overnight serum-free starvation before stimulation
- Challenge: bovine insulin at 387 nM for 10 minutes after 12 h without serum
- Measurement: 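In-cell antibody fluorescence for phospho-dAkt in each well over DNA-dye signal, with log2 residuals expressed as z-scores adjusted for cell count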
- Hit rule: 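Under insulin, a gene counts as a hit if the average z-score of two replicates lies above 2.5 or below -2.5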
The screen tested about 23,000 reagents; shown is a random part of those that have a named target and a result. Of all reagents, 98 (0.43%) got an active call. 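Only hit calls are given; the phospho-dAkt signals, z-scores and hit direction were not deposited.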 Reagents against one gene are numbered here. A plus sign joins genes that one reagent is predicted to hit. No sequences are given here.

{"gene": "CG4239", "reagent": 1, "Call": "inactive"}
{"gene": "RpS19b", "reagent": 1, "Call": "inactive"}
{"gene": "Fum4", "reagent": 1, "Call": "inactive"}
{"gene": "CG14079", "reagent": 1, "Call": "inactive"}
{"gene": "ATPsynGL", "reagent": 1, "Call": "inactive"}
{"gene": "Corp", "reagent": 1, "Call": "inactive"}
{"gene": "velo", "reagent": 1, "Call": "inactive"}
{"gene": "velo", "reagent": 2, "Call": "inactive"}
{"gene": "UK114", "reagent": 1, "Call": "inactive"}
{"gene": "trem", "reagent": 1, "Call": "inactive"}
{"gene": "fs(1)N", "reagent": 1, "Call": "inactive"}
{"gene": "CG7560", "reagent": 1, "Call": "inactive"}
{"gene": "CG15480", "reagent": 1, "Call": "inactive"}
{"gene": "jigr1", "reagent": 1, "Call": "inactive"}
{"gene": "jigr1", "reagent": 2, "Call": "inactive"}
{"gene": "jigr1", "reagent": 3, "Call": "inactive"}
{"gene": "CG12159", "reagent": 1, "Call": "inactive"}
{"gene": "CG10799", "reagent": 1, "Call": "inactive"}
{"gene": "Plc21C", "reagent": 1, "Call": "inactive"}
{"gene": "upd1", "reagent": 1, "Call": "inactive"}
{"gene": "CG7685", "reagent": 1, "Call": "inactive"}
{"gene": "CG13731", "reagent": 1, "Call": "inactive"}
{"gene": "Uba2", "reagent": 1, "Call": "inactive"}
{"gene": "CG42518 + MED9", "reagent": 1, "Call": "inactive"}
{"gene": "Iyd", "reagent": 1, "Call": "inactive"}
{"gene": "Iyd", "reagent": 2, "Call": "inactive"}
{"gene": "CG5181", "reagent": 1, "Call": "inactive"}
{"gene": "CG6678", "reagent": 1, "Call": "inactive"}
{"gene": "mir-210 (retired record)", "reagent": 1, "Call": "inactive"}
{"gene": "CG3880", "reagent": 1, "Call": "inactive"}
{"gene": "CG3880", "reagent": 2, "Call": "inactive"}
{"gene": "Sb", "reagent": 1, "Call": "inactive"}
{"gene": "Nlg4", "reagent": 1, "Call": "inactive"}
{"gene": "Nlg4", "reagent": 2, "Call": "inactive"}
{"gene": "Nlg4", "reagent": 3, "Call": "inactive"}
{"gene": "Nlg4", "reagent": 4, "Call": "inactive"}
{"gene": "Nlg4", "reagent": 5, "Call": "inactive"}
{"gene": "ac", "reagent": 1, "Call": "inactive"}
{"gene": "RpS13", "reagent": 1, "Call": "inactive"}
{"gene": "CG34195", "reagent": 1, "Call": "inactive"}
{"gene": "Ras85D", "reagent": 1, "Call": "inactive"}
{"gene": "CG15715", "reagent": 1, "Call": "inactive"}
{"gene": "CG4951", "reagent": 1, "Call": "inactive"}
{"gene": "csul", "reagent": 1, "Call": "inactive"}
{"gene": "Nubpl", "reagent": 1, "Call": "inactive"}
{"gene": "U3-55K", "reagent": 1, "Call": "inactive"}
{"gene": "eIF2Bdelta", "reagent": 1, "Call": "inactive"}

Part of the list above, set out differently.
upd1
- Call: inactive

CG7685
- Call: inactive

CG13731
- Call: inactive

Uba2
- Call: inactive

CG42518 + MED9
- Call: inactive

Iyd #1
- Call: inactive

Iyd #2
- Call: inactive

CG5181
- Call: inactive

Further entries follow:
{"gene": "Eogt", "reagent": 1, "Call": "inactive"}
{"gene": "lncRNA:CR32661", "reagent": 1, "Call": "inactive"}
{"gene": "CG13309", "reagent": 1, "Call": "inactive"}
{"gene": "Oseg1", "reagent": 1, "Call": "inactive"}
{"gene": "CG12869", "reagent": 1, "Call": "inactive"}
{"gene": "Irbp", "reagent": 1, "Call": "inactive"}
{"gene": "CG10600", "reagent": 1, "Call": "inactive"}
{"gene": "CG16710", "reagent": 1, "Call": "inactive"}
{"gene": "CG14718", "reagent": 1, "Call": "inactive"}
{"gene": "CG11672", "reagent": 1, "Call": "inactive"}
{"gene": "CG34406 (retired record)", "reagent": 1, "Call": "inactive"}
{"gene": "CG34406 (retired record)", "reagent": 2, "Call": "inactive"}
{"gene": "Wdr59", "reagent": 1, "Call": "inactive"}
{"gene": "CG14006", "reagent": 1, "Call": "inactive"}
{"gene": "Sodq", "reagent": 1, "Call": "inactive"}
{"gene": "mlt", "reagent": 1, "Call": "inactive"}
{"gene": "Poxm", "reagent": 1, "Call": "inactive"}
{"gene": "Poxm", "reagent": 2, "Call": "inactive"}
{"gene": "wrd", "reagent": 1, "Call": "inactive"}
{"gene": "wrd", "reagent": 2, "Call": "inactive"}
{"gene": "Actn3", "reagent": 1, "Call": "inactive"}
{"gene": "Pp1-87B", "reagent": 1, "Call": "inactive"}
{"gene": "RhoGAP19D", "reagent": 1, "Call": "inactive"}
{"gene": "RhoGAP19D", "reagent": 2, "Call": "inactive"}
{"gene": "Rnf11", "reagent": 1, "Call": "inactive"}
{"gene": "CG5823", "reagent": 1, "Call": "inactive"}
